This is one part of the list. The data scatter; read single values as rough.

By UniProt entry, the sequences of proteins in these tests, tags left out. Where a name states a change or a piece, a line headed by the entry shows the natural chain unless it says otherwise.
UniProt Q96AY2: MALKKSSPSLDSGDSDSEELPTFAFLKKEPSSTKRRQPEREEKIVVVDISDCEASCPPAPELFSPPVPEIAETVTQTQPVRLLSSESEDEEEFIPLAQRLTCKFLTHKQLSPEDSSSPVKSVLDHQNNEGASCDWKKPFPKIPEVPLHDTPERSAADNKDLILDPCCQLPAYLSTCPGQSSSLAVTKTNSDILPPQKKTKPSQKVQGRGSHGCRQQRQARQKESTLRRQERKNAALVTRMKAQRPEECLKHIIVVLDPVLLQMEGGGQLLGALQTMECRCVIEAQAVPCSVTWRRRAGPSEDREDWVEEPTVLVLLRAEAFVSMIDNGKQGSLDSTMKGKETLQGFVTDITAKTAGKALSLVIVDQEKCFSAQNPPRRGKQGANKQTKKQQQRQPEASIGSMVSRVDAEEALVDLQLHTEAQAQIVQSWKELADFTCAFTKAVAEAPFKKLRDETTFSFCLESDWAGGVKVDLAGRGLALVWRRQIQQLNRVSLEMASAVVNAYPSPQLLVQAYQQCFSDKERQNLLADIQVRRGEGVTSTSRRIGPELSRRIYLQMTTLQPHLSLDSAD
UniProt Q17RN3: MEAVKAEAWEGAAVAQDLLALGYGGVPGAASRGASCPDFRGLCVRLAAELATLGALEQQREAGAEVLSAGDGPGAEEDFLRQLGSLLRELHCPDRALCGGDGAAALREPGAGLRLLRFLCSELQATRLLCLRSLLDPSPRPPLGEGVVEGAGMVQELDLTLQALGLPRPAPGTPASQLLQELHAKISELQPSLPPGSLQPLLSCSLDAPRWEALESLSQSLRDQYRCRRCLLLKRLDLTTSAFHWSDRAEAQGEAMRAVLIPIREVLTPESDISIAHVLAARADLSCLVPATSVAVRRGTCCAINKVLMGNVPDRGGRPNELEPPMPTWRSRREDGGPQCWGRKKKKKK
UniProt Q5RKV6, whole entry, looked up: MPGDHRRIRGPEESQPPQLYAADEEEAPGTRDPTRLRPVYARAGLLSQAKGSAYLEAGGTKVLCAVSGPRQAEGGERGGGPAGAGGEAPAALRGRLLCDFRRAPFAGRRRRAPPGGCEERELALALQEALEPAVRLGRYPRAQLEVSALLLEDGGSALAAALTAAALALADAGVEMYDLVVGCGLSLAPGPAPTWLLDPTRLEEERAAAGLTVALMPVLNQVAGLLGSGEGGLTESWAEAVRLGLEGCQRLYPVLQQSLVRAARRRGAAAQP
UniProt Q96EK7: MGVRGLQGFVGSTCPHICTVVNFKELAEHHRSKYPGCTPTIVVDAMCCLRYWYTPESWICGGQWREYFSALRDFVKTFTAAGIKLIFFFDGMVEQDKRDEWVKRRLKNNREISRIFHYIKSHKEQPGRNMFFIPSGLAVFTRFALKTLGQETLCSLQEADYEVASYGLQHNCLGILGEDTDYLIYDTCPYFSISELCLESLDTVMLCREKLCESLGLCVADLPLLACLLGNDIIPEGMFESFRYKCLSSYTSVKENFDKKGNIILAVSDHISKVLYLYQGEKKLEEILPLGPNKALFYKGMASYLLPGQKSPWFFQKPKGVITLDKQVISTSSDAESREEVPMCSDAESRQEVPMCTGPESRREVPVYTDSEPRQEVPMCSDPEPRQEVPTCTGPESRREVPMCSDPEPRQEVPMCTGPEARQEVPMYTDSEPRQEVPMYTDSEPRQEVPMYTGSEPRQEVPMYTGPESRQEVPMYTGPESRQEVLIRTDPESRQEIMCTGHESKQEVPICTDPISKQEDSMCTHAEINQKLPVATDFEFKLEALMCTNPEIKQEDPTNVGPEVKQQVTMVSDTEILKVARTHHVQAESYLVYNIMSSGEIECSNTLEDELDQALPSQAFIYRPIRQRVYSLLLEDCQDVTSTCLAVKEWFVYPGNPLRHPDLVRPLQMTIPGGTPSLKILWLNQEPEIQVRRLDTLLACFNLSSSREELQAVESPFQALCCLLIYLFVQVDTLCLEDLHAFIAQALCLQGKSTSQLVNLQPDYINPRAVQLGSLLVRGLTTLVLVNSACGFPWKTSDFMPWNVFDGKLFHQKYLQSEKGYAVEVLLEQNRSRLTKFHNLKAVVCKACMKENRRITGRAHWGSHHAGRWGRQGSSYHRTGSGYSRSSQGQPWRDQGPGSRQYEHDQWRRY
UniProt Q9NV70: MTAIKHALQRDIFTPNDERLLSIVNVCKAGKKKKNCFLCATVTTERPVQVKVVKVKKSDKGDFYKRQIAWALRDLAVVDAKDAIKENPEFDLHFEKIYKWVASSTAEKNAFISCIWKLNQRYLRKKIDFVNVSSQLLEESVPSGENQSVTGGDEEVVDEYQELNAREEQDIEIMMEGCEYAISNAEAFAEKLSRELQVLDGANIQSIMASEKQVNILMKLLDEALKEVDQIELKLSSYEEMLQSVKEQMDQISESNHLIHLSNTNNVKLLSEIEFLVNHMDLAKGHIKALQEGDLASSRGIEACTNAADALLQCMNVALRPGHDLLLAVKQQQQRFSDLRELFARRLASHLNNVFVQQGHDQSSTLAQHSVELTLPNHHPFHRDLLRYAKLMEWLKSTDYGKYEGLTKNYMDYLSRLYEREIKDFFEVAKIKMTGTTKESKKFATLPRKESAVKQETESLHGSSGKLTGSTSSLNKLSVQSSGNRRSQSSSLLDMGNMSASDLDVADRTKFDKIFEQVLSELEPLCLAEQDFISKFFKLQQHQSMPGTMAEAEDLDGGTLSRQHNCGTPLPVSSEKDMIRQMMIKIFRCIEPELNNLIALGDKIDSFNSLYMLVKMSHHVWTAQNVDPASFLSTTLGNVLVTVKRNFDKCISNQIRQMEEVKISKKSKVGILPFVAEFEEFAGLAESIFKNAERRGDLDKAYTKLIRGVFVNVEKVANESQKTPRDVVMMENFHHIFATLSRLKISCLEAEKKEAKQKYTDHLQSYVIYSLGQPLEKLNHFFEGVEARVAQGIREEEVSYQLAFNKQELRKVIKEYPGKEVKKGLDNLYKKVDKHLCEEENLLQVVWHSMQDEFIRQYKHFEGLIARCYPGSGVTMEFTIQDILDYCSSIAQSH
UniProt Q8TAV0: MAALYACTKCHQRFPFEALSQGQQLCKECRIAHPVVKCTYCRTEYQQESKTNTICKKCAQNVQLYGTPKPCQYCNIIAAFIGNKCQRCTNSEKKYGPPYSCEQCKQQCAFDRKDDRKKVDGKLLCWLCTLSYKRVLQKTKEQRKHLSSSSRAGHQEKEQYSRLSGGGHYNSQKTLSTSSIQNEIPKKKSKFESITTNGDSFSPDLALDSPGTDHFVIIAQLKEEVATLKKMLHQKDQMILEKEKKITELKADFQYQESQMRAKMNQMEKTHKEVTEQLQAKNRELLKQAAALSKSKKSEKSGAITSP
UniProt Q5T0W9: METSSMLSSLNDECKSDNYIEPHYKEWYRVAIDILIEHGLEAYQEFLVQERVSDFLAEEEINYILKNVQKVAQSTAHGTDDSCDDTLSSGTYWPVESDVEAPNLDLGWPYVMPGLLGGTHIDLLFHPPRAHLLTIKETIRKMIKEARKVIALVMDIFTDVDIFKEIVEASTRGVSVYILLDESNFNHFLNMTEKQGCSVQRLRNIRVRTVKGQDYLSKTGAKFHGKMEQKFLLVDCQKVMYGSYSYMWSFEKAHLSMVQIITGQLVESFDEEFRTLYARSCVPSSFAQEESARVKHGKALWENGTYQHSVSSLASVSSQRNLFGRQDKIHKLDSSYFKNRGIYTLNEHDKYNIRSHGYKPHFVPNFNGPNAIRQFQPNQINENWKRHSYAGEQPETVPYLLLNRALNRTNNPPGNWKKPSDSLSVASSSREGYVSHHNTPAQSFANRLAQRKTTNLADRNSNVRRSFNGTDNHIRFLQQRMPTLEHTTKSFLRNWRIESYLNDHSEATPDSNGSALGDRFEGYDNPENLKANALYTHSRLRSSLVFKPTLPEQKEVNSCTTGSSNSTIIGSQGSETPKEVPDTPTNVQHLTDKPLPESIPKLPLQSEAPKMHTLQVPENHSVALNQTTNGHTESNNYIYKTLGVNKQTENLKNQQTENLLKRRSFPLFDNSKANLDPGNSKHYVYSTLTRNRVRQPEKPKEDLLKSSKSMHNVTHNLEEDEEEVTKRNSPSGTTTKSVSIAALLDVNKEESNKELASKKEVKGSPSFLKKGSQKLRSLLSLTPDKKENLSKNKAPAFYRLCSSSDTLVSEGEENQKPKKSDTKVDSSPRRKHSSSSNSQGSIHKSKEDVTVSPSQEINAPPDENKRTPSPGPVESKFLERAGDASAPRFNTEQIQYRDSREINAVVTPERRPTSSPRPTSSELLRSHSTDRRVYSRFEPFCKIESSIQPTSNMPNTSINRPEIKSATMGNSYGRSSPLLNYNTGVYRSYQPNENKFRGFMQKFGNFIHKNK
UniProt Q9NVH0: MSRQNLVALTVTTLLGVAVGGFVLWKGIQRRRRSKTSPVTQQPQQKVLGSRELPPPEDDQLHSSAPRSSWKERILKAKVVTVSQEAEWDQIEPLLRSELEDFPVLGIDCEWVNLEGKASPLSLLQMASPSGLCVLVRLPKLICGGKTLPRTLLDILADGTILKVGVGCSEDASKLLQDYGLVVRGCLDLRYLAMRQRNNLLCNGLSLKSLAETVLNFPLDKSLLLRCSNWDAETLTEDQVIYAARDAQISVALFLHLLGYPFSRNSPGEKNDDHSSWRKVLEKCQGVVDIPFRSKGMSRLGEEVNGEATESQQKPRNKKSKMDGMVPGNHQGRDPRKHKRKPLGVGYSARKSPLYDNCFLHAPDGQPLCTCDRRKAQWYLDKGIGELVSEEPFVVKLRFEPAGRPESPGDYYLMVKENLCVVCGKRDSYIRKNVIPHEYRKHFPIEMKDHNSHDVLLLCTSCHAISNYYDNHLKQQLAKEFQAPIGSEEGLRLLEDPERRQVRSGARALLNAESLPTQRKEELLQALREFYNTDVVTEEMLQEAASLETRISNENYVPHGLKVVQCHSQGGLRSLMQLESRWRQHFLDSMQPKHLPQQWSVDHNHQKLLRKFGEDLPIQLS
UniProt Q0PNE2: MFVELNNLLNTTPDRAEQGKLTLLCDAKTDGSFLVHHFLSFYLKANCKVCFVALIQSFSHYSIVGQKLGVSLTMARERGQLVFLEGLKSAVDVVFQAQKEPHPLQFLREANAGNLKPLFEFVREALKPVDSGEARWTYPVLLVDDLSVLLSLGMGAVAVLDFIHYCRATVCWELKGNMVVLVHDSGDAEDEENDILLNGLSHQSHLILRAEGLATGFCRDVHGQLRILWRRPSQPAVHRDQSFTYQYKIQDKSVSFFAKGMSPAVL
UniProt Q9NYP7: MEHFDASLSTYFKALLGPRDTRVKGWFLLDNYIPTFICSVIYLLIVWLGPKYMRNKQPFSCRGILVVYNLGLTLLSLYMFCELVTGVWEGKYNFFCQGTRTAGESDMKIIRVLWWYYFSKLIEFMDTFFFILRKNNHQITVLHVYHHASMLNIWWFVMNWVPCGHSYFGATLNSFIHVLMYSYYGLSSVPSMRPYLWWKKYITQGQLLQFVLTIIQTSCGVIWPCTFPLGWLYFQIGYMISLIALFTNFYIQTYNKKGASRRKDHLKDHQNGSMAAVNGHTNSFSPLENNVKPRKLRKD
UniProt Q6P1L5: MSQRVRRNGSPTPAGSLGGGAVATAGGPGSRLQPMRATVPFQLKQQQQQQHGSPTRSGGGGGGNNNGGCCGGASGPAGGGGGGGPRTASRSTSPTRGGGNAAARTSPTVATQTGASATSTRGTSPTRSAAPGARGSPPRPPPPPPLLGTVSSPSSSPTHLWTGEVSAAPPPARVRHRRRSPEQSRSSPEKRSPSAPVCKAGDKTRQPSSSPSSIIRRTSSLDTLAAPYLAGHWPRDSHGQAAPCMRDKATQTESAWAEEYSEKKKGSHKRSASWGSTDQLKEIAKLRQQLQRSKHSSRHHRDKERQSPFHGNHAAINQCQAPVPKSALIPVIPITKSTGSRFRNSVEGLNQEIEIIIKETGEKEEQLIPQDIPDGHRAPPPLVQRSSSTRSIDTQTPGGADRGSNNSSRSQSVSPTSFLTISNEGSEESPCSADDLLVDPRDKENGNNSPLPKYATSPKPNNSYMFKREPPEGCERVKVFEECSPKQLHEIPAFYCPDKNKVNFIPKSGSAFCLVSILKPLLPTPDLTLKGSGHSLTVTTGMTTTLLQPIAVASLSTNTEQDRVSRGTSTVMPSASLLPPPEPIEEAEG
UniProt Q969X5: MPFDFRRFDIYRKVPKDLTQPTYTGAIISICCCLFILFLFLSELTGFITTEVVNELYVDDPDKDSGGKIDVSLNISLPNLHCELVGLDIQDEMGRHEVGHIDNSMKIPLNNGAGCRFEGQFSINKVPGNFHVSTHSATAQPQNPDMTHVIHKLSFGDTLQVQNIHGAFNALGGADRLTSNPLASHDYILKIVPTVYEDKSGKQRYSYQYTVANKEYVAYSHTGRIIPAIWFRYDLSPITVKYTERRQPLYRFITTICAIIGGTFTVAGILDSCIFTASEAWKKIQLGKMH

The results in this text go back to the supplement of paper PMC11732987, “Enantioselective OTUD7B fragment discovery through chemoproteomics screening and high-throughput optimisation” (Communications Chemistry, 2025).

Compound in the first assay: ClCC(=O)N[C@H]1CCCc2ccccc12
Nature of the assay: log2 mean competition ratio of IA-DTB cysteine labelling (DMSO/compound) (log2 ratio); higher = stronger cysteine engagement by compound. The note with it: 50 µM; treatment time: 4 h; cell line lysate: HEK293T. The protocol:
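IA-DTB competitive cysteine chemoproteomics in HEK293T RIPA lysate. Lysates were treated with compound 29 or 30 at 50 or 200 µM for 4 h, then IA-DTB (500 µM, 1 h), trypsin-digested, NeutrAvidin-enriched and analysed by diaPASEF. Competition ratio = intensity DMSO / intensity compound (n=4 treated, n=64 DMSO); binding: mean log2 CR ≥ 1 and p ≤ 0.05 plus QC filters. Target is the cysteine site.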
For the target ETAA1 C637(C666) (UniProt Q9NY74), the “log2 mean competition ratio” value was -0.305.
On the same count and under the same terms, with ELP1 C744 (UniProt O95163) the figure was 0.366; with EME1 C133 (UniProt Q96AY2), -0.273; with FAM98C C340 (UniProt Q17RN3), 0.253.
Same read-out and setting: the figure for EXOSC6 C64 (UniProt Q5RKV6) is 0.36; for ERICH1 C415 (UniProt Q86X53) it is -0.73; for FAM120A C919 it is 0.0496.
EME1 C437 (UniProt Q96AY2): the “log2 mean competition ratio” value is -0.00888.
Same read-out and setting: the figure for FAM120B C523 (UniProt Q96EK7) is -0.343.
Regarding EXOC1 C747 (UniProt Q9NV70), the “log2 mean competition ratio” value turned out to be 0.0481.
Same read-out and setting: the figure for FAM76A C7 (UniProt Q8TAV0) is 0.189; for FAM83B C801 (UniProt Q5T0W9) it is -0.254.
The same measure, in the same setting: the figure for EXD2 C227 (UniProt Q9NVH0) is 0.773; for ELP6 C218 (UniProt Q0PNE2) it is 0.195.
Still for that read-out and setting: with ERRFI1 C80 the figure was 0.118; with ELOVL5 C61 (UniProt Q9NYP7), 0.131.
As to FAM117B C483 (UniProt Q6P1L5), the “log2 mean competition ratio” value was determined as 0.204.
For the target ETFA C155 (UniProt P13804), the “log2 mean competition ratio” value was -0.226.
Same read-out and setting: with EYA2 C522 the figure was -0.347.
On the same count and under the same terms, with ERGIC1 C115 (UniProt Q969X5) the figure was 0.0561.

The same assay, now with this note: 200 µM; treatment time: 4 h; cell line lysate: HEK293T.
Consider ETAA1 C637(C666) (UniProt Q9NY74), for which the “log2 mean competition ratio” value worked out at 0.0193.
As to ELP1 C744 (UniProt O95163), the “log2 mean competition ratio” value was -0.273.
The same measure, in the same setting: the figure for EME1 C133 (UniProt Q96AY2) is -0.0425.
On the same count and under the same terms, the figure for FAM98C C340 (UniProt Q17RN3) is 0.139.
Take EXOSC6 C64 (UniProt Q5RKV6): the “log2 mean competition ratio” value is 0.175.
On the same count and under the same terms, with ERICH1 C415 (UniProt Q86X53) the figure was -0.309; with FAM120A C919, 0.0845; with EME1 C437 (UniProt Q96AY2), 0.0223.
Still for that read-out and setting: the figure for FAM120B C523 (UniProt Q96EK7) is 0.129; for EXOC1 C747 (UniProt Q9NV70) it is -0.16; for FAM76A C7 (UniProt Q8TAV0) it is 0.0894.
As to FAM83B C801 (UniProt Q5T0W9), the “log2 mean competition ratio” value was -0.154.
Still for that read-out and setting: the figure for EXD2 C227 (UniProt Q9NVH0) is 0.403; for ELP6 C218 (UniProt Q0PNE2) it is 0.01; for ERRFI1 C80 it is -0.172.
ELOVL5 C61 (UniProt Q9NYP7): the “log2 mean competition ratio” value was 0.469.
FAM117B C483 (UniProt Q6P1L5): the “log2 mean competition ratio” value was 0.0939.
Same read-out and setting: with ETFA C155 (UniProt P13804) the figure was 0.0345.
As for EYA2 C522, the “log2 mean competition ratio” value is -0.403.
Same read-out and setting: with ERGIC1 C115 (UniProt Q969X5) the figure was 0.522.
